This data set is described as follows: general procedure: Fmoc solid-phase peptide synthesis; Tentagel S RAM resin. To be noted: late stage modification step.

With c(RGDfK)-PA, the step yield amounted to 72%.

For the origin of these results see PMC5892408 (Chemical Science, 2018).
